Test results: publication PMC8884901
These are yes or no findings as the source states them, for the method shown. Binding seen in cells or lysates may run through a third protein. Some binding calls cover weakened binding; strength is not graded here.

Chains of the proteins cited; added tags and fusions are not shown.
UniProt P84022: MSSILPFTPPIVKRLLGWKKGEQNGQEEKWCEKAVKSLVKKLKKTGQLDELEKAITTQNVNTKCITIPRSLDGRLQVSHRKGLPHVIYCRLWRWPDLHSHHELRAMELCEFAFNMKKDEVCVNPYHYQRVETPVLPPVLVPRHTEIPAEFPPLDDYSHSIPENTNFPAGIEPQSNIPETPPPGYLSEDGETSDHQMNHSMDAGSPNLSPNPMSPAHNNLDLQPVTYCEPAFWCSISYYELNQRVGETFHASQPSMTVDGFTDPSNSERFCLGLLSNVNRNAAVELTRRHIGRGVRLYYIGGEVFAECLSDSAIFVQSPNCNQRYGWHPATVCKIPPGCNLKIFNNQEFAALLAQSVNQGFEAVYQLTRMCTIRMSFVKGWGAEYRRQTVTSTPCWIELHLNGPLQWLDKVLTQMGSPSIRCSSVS

Tests used:
[1] = target: HA-SMAD3 (WT) (UniProt P84022); assay: co-IP; HEK293T cells transfected with WT HA-SMAD3 or HA-SMAD3 K53/333R, treated with TGFB1 (5 ng/mL); WCEs, IP with anti-HA antibody, immunoblot
[2] = target: SMAD3 (endogenous) (human (endogenous in MDA-MB-231, MCF-7, HEK293T)) (UniProt P84022); assay: co-IP; endogenous proteins; WCEs (NP-40 buffer) of MDA-MB-231, MCF-7 or HEK293T cells, IP with anti-SMAD3 antibody on magnetic beads, immunoblot; cells serum starved and treated with TGFB1 (5 ng/mL), silenced for EZH2 or transfected with EZH2 WT, H689A or Y641H in some panels

- binding [1]: binds
- binding [2]: binds
B1: SMAD anchor for receptor activation (SARA), endogenous (protein, UniProt O95405 1-1425)
chain: MENYFQAEAYNLDKVLDEFEQNEDETVSSTLLDTKWNKILDPPSHRLSFNPTLASVNESAVSNESQPQLKVFSLAHSAPLTTEEEDHCANGQDCNLNPEIATMWIDENAVAEDQLIKRNYSWDDQCSAVEVGEKKCGNLACLPDEKNVLVVAVMHNCDKRTLQNDLQDCNNYNSQSLMDAFSCSLDNENRQTDQFSFSINESTEKDMNSEKQMDPLNRPKTEGRSVNHLCPTSSDSLASVCSPSQLKDDGSIGRDPSMSAITSLTVDSVISSQGTDGCPAVKKQENYIPDEDLTGKISSPRTDLGSPNSFSHMSEGILMKKEPAEESTTEESLRSGLPLLLKPDMPNGSGRNNDCERCSDCLVPNEVRADENEGYEHEETLGTTEFLNMTEHFSESQDMTNWKLTKLNEMNDSQVNEEKEKFLQISQPEDTNGDSGGQCVGLADAGLDLKGTCISESEECDFSTVIDTPAANYLSNGCDSYGMQDPGVSFVPKTLPSKEDSVTEEKEIEESKSECYSNIYEQRGNEATEGSGLLLNSTGDLMKKNYLHNFCSQVPSVLGQSSPKVVASLPSISVPFGGARPKQPSNLKLQIPKPLSDHLQNDFPANSGNNTKNKNDILGKAKLGENSATNVCSPSLGNISNVDTNGEHLESYEAEISTRPCLALAPDSPDNDLRAGQFGISARKPFTTLGEVAPVWVPDSQAPNCMKCEARFTFTKRRHHCRACGKVFCASCCSLKCKLLYMDRKEARVCVICHSVLMNAQAWENMMSASSQSPNPNNPAEYCSTIPPLQQAQASGALSSPPPTVMVPVGVLKHPGAEVAQPREQRRVWFADGILPNGEVADAAKLTMNGTSSAGTLAVSHDPVKPVTTSPLPAETDICLFSGSITQVGSPVGSAMNLIPEDGLPPILISTGVKGDYAVEEKPSQISVMQQLEDGGPDPLVFVLNANLLSMVKIVNYVNRKCWCFTTKGMHAVGQSEIVILLQCLPDEKCLPKDIFNHFVQLYRDALAGNVVSNLGHSFFSQSFLGSKEHGGFLYVTSTYQSLQDLVLPTPPYLFGILIQKWETPWAKVFPIRLMLRLGAEYRLYPCPLFSVRFRKPLFGETGHTIMNLLADFRNYQYTLPVVQGLVVDMEVRKTSIKIPSNRYNEMMKAMNKSNEHVLAGGACFNEKADSHLVCVQNDDGNYQTQAISIHNQPRKVTGASFFVFSGALKSSSGYLAKSSIVEDGVMVQITAENMDSLRQALREMKDFTITCGKADAEEPQEHIHIQWVDDDKNVSKGVVSPIDGKSMETITNVKIFHGSEYKANGKVIRWTEVFFLENDDQHNCLSDPADHSRLTEHVAKAFCLALCPHLKLLKEDGMTKLGLRVTLDSDQVGYQAGSNGQPLPSQYMNDLDSALVPVIHGGACQLSEGPVVMELIFYILENIV
